Laboratory results as given in article PMC7856738.
Results are given in words; binding and its absence hold for the method and conditions named. In cells and extracts the contact can be indirect. Some results given as binding are weak or reduced against the parent protein; the word gives no strength.

Protein sequences, listed by entry. Tags and fused reporters are not part of them.
UniProt Q9Y5S2: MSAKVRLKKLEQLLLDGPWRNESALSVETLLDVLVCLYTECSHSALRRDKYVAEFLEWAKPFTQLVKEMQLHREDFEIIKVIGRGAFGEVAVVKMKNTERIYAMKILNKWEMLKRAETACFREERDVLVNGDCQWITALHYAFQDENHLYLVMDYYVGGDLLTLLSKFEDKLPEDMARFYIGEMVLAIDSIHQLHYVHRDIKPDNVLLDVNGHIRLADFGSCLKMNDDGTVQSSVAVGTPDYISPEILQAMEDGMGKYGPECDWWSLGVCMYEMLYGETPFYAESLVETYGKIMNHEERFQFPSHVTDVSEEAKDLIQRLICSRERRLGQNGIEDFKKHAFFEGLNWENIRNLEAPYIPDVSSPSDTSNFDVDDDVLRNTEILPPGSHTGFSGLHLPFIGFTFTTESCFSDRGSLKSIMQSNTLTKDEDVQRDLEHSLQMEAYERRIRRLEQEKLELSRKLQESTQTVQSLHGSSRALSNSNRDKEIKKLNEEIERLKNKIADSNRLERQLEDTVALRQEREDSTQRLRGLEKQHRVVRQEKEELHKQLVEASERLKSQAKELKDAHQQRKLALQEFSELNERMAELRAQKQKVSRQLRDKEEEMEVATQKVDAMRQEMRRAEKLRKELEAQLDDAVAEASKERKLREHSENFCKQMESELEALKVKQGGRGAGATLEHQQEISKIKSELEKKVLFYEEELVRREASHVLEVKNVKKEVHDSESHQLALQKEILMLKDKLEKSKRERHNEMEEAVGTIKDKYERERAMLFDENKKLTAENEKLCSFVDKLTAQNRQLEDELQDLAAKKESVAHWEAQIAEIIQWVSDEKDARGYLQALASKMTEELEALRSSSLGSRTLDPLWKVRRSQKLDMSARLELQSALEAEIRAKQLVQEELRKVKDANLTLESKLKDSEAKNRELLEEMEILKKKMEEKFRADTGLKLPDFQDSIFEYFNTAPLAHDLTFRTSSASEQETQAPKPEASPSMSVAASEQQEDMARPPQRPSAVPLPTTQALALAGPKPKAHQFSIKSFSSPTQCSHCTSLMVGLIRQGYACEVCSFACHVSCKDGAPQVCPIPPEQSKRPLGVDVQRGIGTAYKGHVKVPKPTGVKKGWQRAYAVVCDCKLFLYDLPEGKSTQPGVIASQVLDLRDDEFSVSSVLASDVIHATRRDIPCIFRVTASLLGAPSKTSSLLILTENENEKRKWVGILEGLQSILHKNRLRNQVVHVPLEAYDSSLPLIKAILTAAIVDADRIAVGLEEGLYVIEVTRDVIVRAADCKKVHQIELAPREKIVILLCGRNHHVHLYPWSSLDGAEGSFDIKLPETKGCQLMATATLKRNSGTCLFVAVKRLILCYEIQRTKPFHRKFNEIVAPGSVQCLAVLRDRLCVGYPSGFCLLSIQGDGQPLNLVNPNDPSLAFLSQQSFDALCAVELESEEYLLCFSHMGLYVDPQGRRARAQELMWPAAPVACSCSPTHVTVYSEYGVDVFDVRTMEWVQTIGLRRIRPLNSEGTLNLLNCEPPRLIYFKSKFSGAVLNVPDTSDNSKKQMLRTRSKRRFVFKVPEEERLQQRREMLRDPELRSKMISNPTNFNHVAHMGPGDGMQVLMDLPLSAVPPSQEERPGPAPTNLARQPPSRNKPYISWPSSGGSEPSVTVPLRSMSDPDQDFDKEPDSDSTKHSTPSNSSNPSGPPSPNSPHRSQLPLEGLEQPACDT

Target: T1, seven in absentia homolog 2 (Siah2), endogenous (human (endogenous in MKN45)) (UniProt O43255)
T1 sequence: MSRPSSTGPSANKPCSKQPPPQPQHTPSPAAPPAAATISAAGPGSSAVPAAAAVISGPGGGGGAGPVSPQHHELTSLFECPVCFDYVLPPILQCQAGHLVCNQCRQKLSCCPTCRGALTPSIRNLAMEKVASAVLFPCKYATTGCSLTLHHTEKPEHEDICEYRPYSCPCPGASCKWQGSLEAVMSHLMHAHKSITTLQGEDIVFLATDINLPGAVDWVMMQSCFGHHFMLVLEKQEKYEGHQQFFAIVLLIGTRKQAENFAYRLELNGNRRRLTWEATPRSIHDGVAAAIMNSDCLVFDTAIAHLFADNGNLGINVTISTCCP
Assay: co-IP; whole cell lysates of uninfected or H. pylori-infected (200 MOI, 12 h) MKN45 cells, with or without 50 µM MG132, immunoprecipitated with Siah2 antibody; western blot for MRCKβ

binding: binds
Substance: myotonic dystrophy kinase-related Cdc42-binding kinase β (MRCKβ), endogenous (from UniProt Q9Y5S2 1-1711) (enzyme)
